# Target: T1, Aromatase (Homo sapiens, UniProt P11511)
# T1 sequence (P11511 whole entry): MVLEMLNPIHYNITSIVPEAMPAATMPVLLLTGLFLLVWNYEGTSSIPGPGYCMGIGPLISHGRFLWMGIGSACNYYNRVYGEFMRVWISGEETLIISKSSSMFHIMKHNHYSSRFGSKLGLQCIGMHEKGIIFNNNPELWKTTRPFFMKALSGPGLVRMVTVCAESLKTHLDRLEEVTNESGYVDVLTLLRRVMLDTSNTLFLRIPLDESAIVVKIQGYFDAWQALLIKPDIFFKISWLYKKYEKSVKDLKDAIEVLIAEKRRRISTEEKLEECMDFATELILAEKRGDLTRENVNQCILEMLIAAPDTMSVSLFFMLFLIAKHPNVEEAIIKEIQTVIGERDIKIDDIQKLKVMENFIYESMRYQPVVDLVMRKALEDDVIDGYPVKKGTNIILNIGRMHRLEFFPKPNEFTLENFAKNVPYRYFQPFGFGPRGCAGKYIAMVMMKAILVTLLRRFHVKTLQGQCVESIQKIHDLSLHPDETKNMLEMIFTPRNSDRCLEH
compound,measurement,value
CC[C@]1(c2ccncc2)CC(C)(C)C(=O)NC1=O,IC50,> 200 µM
